PubChem BioAssay AID686943 | Drosophila RNAi Screening Center, 2013
Aim: 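Knockdowns that increase or decrease active ERK after insulin receptor stimulation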 (primary screen). System: Drosophila S2R+ haemocyte-like cells expressing YFP-tagged ERK (Rolled). Reagent: long dsRNA against Drosophila genes. Treatment: insulin stimulation versus unstimulated cells; dose and duration not given. Read-out: 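Per-plate z-scores of phospho-ERK immunostaining normalised to YFP-tagged ERK, measured with and without insulin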. Reading the numbers: replicate 1, z-score of dpERK with insulin and replicate 2, z-score of dpERK with insulin: higher = more active ERK per ERK-YFP after insulin.
In all, the deposit lists about 23,000 reagents; below is a random part of those with a known target gene and a result. 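Extra replicates exist only for a retested subset of genes; insulin dose and duration not given; both raised and lowered dpERK matter.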 A plus sign joins genes that one reagent is predicted to hit. Not all columns of the deposit are shown. Not given: the amount of reagent, the time to read-out.

no.	Target gene	amplicon	replicate 1, z-score of dpERK with insulin	replicate 2, z-score of dpERK with insulin
1	RNF220 (GeneID 42690)	DRSC15652	-0.14	0.46
2	Ubr3 (GeneID 31713)	DRSC17987	1.07	1.3
3	Ubr3 (GeneID 31713)	DRSC17997	0.04	0.12
4	Dis3 (GeneID 42900)	DRSC16034	0.99	0.69
5	kat80 (GeneID 32581)	DRSC20344	-0.18	0.17
6	kat80 (GeneID 32581)	DRSC20345	-0.41	-0.59
7	vig2 (GeneID 43016)	DRSC14402	-0.11	0.1
8	Aos1 (GeneID 41532)	DRSC14113	-0.06	0.12
9	PAPLA1 (GeneID 34109)	DRSC03095	-0.26	-0.31
10	PAPLA1 (GeneID 34109)	DRSC03096	0.14	-1.43
11	Doc1 (GeneID 39039)	DRSC11146	-0.27	0.09
12	CG14840 (GeneID 41734)	DRSC14964	0.28	-1.58
13	ref(2)P (GeneID 35246)	DRSC03601	1.02	1.44
14	mei-W68 (GeneID 2768853)	DRSC07649	0.8	0.82
15	Nulp1 (GeneID 38897)	DRSC09677	0.09	-0.89
16	CG10348 (GeneID 35132)	DRSC02043	0.46	1.88
17	CG10348 (GeneID 35132)	DRSC21908	-0.01	1.1
18	Ir67c (GeneID 317838)	DRSC22097	-0.07	-3.23
19	CG7236 (GeneID 33798)	DRSC03037	0.89	1.29
20	CG5966 (GeneID 31532)	DRSC18394	0.72	0.22
21	Dnaaf6 (GeneID 39598)	DRSC10473	0.37	-1.23
22	MKP-4 (GeneID 32963)	DRSC19567	0.21	0.5
23	CG17784 (GeneID 42909)	DRSC15268	-0.1	2.52
24	GstT1 (GeneID 35995)	DRSC06243	0.92	-0.29
25	Nup43 (GeneID 42209)	DRSC16279	0.81	-0.39
26	Nct (GeneID 42964)	DRSC16172	0.31	0.58
27	CG3698 (GeneID 40298)	DRSC11749	-0.56	-0.84
28	CalpB (GeneID 39165)	DRSC11109	-0.49	-0.93
29	CG3732 (GeneID 37588)	DRSC04410	-0.95	-0.18
30	CG4666 (GeneID 31541)	DRSC18379	-0.23	0.2
31	CG5188 (GeneID 34428)	DRSC02826	-0.06	0.31
32	Vamp7 (GeneID 36015)	DRSC06599	-0.27	0.23
33	CG14459 (GeneID 40476)	DRSC11719	-6.15	-2.47
34	Inx2 (GeneID 31646)	DRSC18783	0.2	0.53
35	l(3)87Df (GeneID 49762)	DRSC16982	0.35	0.75

Quoted from the entries so far, 8 entries:
no.	Target gene	amplicon	replicate 1, z-score of dpERK with insulin	replicate 2, z-score of dpERK with insulin
14	mei-W68 (GeneID 2768853)	DRSC07649	0.8	0.82
15	Nulp1 (GeneID 38897)	DRSC09677	0.09	-0.89
16	CG10348 (GeneID 35132)	DRSC02043	0.46	1.88
17	CG10348 (GeneID 35132)	DRSC21908	-0.01	1.1
18	Ir67c (GeneID 317838)	DRSC22097	-0.07	-3.23
19	CG7236 (GeneID 33798)	DRSC03037	0.89	1.29
20	CG5966 (GeneID 31532)	DRSC18394	0.72	0.22
21	Dnaaf6 (GeneID 39598)	DRSC10473	0.37	-1.23

Further results follow.
no.	Target gene	amplicon	replicate 1, z-score of dpERK with insulin	replicate 2, z-score of dpERK with insulin
36	Nepl17 (GeneID 43408)	DRSC14880	-0.07	-0.05
37	CG16904 (GeneID 41212)	DRSC15161	0.13	-0.05
38	CG6296 (GeneID 43246)	DRSC16013	-0.02	0.06
39	CG30259 (GeneID 37606)	DRSC04164	-0.85	0.33
40	CG30259 (GeneID 37606)	DRSC04165	-0.03	-0.46
41	CG10053 (GeneID 40871)	DRSC12502	0.78	0.38
42	Tmem214 (GeneID 34514)	DRSC02924	1.07	0.92
43	Tmem214 (GeneID 34514)	DRSC02925	0.82	0.74
44	CG10477 (GeneID 38679)	DRSC09732	-0.16	-1.08
45	His4:CG33883 + His4:CG33889 + His4:CG33899 + 20 more	DRSC21268	-4.25	-3.67
46	CG32228 (GeneID 326202)	DRSC22296	0.08	0.58
47	ppk25 (GeneID 2768722)	DRSC04973	0.65	0.72
48	Pp4-19C (GeneID 45031)	DRSC20559	-2.75	-3.31
49	Pp4-19C (GeneID 45031)	DRSC21251	-2.79	-4.31
50	CG7289 (GeneID 33372)	DRSC00697	0.63	0.23
51	pinta (GeneID 42635)	DRSC14698	-0.08	0.92
52	CG11349 (GeneID 38552)	DRSC08179	0.19	0.67
53	CG6495 (GeneID 34486)	DRSC01993	-0.18	0.35
54	Snp (GeneID 37511)	DRSC04524	-0.04	0.82
55	Snp (GeneID 37511)	DRSC21538	-0.06	0.42
56	CG6149 (GeneID 39277)	DRSC10593	0.23	0.87
57	CG13727 (GeneID 39931)	DRSC10055	0.01	0.73
